Out of some 300,000 compounds screened, about 3,700 (1.2%) were called active. Inconclusive means that the source gave no clear call. Such entries were picked first, then a sample of the others. Calls follow the shape of the full dose curve; tested in HEK293 cells. Where the call is inconclusive, the potency comes from a doubtful curve fit.
Test: qHTS for Inhibitors of binding or entry into cells for Lassa Virus; also: nearly all actives have a fitted effect of over 50% in size
Details: Lassa virus pseudotype entry inhibition, cell reporter; activity change, negative = inhibition: at 37.9 µM (top of the series) unless noted
% is scaled to controls: 0 for no effect and ±100 for the full control effect; potency is read from the fitted curve at half-maximal effect.

Row | Structure (SMILES) | Potency | activity change, negative = inhibition
1 | COc1cccc(CNC(=O)CSCc2cnn(-c3ccccc3)c2-n2cccc2)c1OC | inconclusive: 29.1 µM [inhibitor, single point] | 
2 | COc1ccc(NS(=O)(=O)c2ccc(C)c(C(=O)N3CCC3)c2)cc1 | inconclusive: 1 µM [activator, partial curve, poor fit] | 
3 | CCCc1nc2ccccc2c(C(=O)OCC(=O)NCc2ccco2)c1CC | inactive | 
4 | Cc1ccc(-n2ncc(C(=O)N3CCN(c4ccccn4)CC3)c2C2CCN(C(=O)OC(C)(C)C)CC2)cc1 | inconclusive: 1.41 µM [inhibitor, full curve, poor fit] | 
5 | COc1ccc(C(=O)N2N=C(c3ccccc3)CC2(O)C(F)(F)F)cc1 (configuration not stated) | inconclusive: 11.2 µM [inhibitor, partial curve, poor fit] | 
6 | C[C@H](c1ccccc1)N1C[C@@H](COCc2ccccc2)Oc2cccc(Oc3ccc(F)cc3)c2S1(=O)=O | active: 3.53 µM | 
7 | Cc1ccc(C)c(N2C(=O)CN=C2Nc2ccccc2Cl)c1 | inconclusive: 4.47 µM [activator, partial curve, poor fit] | 
8 | COCCn1c(=NC(=O)c2ccc(S(=O)(=O)N3CCc4ccccc4C3)cc2)sc2cc(S(N)(=O)=O)ccc21 | inactive | 
9 | CCCCSc1nc(C)cc(NC(=S)Nc2ccc(OC)cc2)n1 | inconclusive: 1.03 µM [inhibitor, full curve] | 
10 | CCc1nn(Cc2cccc(F)c2)c(=O)c2cc3cc(C)ccc3n12 | inactive | 
11 | CN(C)c1ccc(N=Nc2ccccc2C(=O)OCC(=O)NC2CCCC2)cc1 | inconclusive: 14.1 µM [inhibitor, single point] | 
12 | CC(C)(C)n1nc(-c2ccc(Cl)cc2)c2c(N)ncnc21 | inconclusive: 14.1 µM [inhibitor, partial curve] | 
13 | NC(=O)c1c(NC(=O)C2c3ccccc3Oc3ccccc32)sc2c1CCCCC2 | inactive | 
14 | Cc1cccc(OCC(=O)OCc2cc(=O)n3nc(-c4cccs4)sc3n2)c1 | inconclusive: 35.5 µM [activator, single point] | 
15 | Cc1ccc(CSc2ccc3nnc(CCNS(=O)(=O)c4ccc(C)cc4)n3n2)cc1 | inconclusive: 35.5 µM [inhibitor, partial curve, poor fit] | 
16 | CCOC(=O)c1cc(-c2ccccc2)n(-c2cccc(C(=O)Nc3cccc(C)c3)c2)c1C | inactive | 
17 | CCN(c1ccccc1)S(=O)(=O)c1ccc(OC)c(NC(=O)CNCCc2ccccc2)c1 | inconclusive: 3.98 µM [inhibitor, partial curve, poor fit] | 
18 | Nc1nonc1-c1noc(N2CCCCC2)n1 | inactive | 
19 | Cc1cccc(OCCSc2nc3ccc(NC(=O)c4cccs4)cc3s2)c1 | inactive | 
20 | Cc1ccc(C)c(NC(=O)CN(C)C(=O)c2ccccc2OCc2ccc(Cl)cc2)c1 | inconclusive: 22.4 µM [inhibitor, single point] | 
21 | O=C(CCCc1cccs1)Nc1nc2c(s1)CCCC2 | inactive | 
22 | Cn1c(=O)c2c(SCC(=O)NCC3CCCO3)nc(-c3cccc(F)c3)nc2n(C)c1=O (configuration not stated) | inactive | 
23 | CC(C)COc1cccc(C(=O)N(C)CC(=O)Nc2cccc3ccccc23)c1 | inconclusive: 14.1 µM [inhibitor, single point] | 
24 | CCCCCSc1nc(N2CCOCC2)c2c(c1C#N)CC(C)(C)OC2 | inconclusive: 20 µM [inhibitor, single point] | 

Row | Structure (SMILES) | Potency | activity change, negative = inhibition
25 | CC(=O)c1ccc(NC(=O)c2ccc(NC(=O)CCS(=O)(=O)c3cccs3)cc2)cc1 | inconclusive: 25.1 µM [activator, single point] | 
26 | COc1ccc(NP2(=O)NCCCN2)cc1 |  | inconclusive: 6.12% [activator] [at 46.1 µM]
27 | COC(=O)C1(C)CN(S(=O)(=O)c2ccc(C)cc2)c2cc(OC)ccc2C1=O (configuration not stated) | inconclusive: 25.9 µM [inhibitor, partial curve, poor fit] | 
28 | CN(C)S(=O)(=O)N1CCC(Oc2cccc(C(=O)NC3CCCCC3)c2)CC1 | inconclusive: 35.5 µM [inhibitor, partial curve, poor fit] | 
29 | COc1cccc(/C=N/NC(=O)c2ccc(=O)n(C)c2)c1O | inconclusive: 15.8 µM [inhibitor, single point] | 
30 | CCCCC(=O)Nc1cc2nn(-c3ccc(OCC)cc3)nc2cc1C | inconclusive: 5.01 µM [activator, partial curve, poor fit] | 
31 | CNc1oc(-c2ccccc2F)nc1S(=O)(=O)c1ccc(C)cc1 | inactive | 
32 | O=C(Nc1ccc(F)cc1)c1cc2c(s1)CCCC2 | inconclusive: 17.8 µM [inhibitor, single point] | 
33 | CCOC(=O)N1CCN(c2nc3ccccc3nc2C(C#N)S(=O)(=O)c2ccc(C)cc2)CC1 (configuration not stated) | inconclusive: 35.5 µM [activator, single point] | 
34 | CC(NC(=O)c1ccc(N(C)C)cc1)C1CC2CCC1C2 (configuration not stated) | inactive | 
35 | Cc1cc(=O)[nH]c(N/N=C/c2cc(C)n(-c3ccccc3)c2C)n1 | inconclusive: 8.91 µM [inhibitor, partial curve] | 
36 | COc1ccc(-c2nc3ncccn3c2Nc2ccccc2)cc1 | inactive | 
37 | COc1ccc(C(=O)N2CCCc3ccccc32)cc1Br | inactive | 
38 | COc1ccc2oc(=O)c(C(=O)NCc3ccccc3)cc2c1 | inactive | 
39 | CCC(=O)N1CCCc2cc(S(=O)(=O)N3CCC(C(=O)Nc4ccccc4CC)CC3)ccc21 | inconclusive: 35.5 µM [inhibitor, single point] | 
40 | N#Cc1ccc(Cl)cc1NC(=O)CNCc1cccs1 | inactive | 
41 | Cc1ccc(N(Cc2cc3ccccc3[nH]c2=O)C(=O)c2cccs2)cc1 | inconclusive: 15.8 µM [inhibitor, single point] | 
42 | CCOC(=O)CSc1nc(NCc2ccco2)c2ccccc2n1 | inconclusive: 29.1 µM [activator, single point] | 
43 | O=C(Nc1cccc(F)c1)c1cccc2c1C(=O)N(C1CCCCC1)C2 | inactive | 
44 | CN(CCC#N)S(=O)(=O)c1ccc2[nH]cc(C(=O)NCCc3ccccc3)c(=O)c2c1 | inconclusive: 12.6 µM [inhibitor, partial curve, poor fit] | 
45 | Cc1ccc(Cl)cc1N1CCN(CCCNC(=O)c2nnc(Cc3cccc(Cl)c3)o2)CC1 | inconclusive: 35.5 µM [inhibitor, single point] | 
46 | Cc1ccc(/C=N/N=C/c2ccc(C)s2)s1 | inconclusive: 11.2 µM [inhibitor, single point] | 
47 | O=C(NC(=S)Nc1ccccc1[N+](=O)[O-])c1ccco1 | inconclusive: 35.5 µM [activator, single point] | 
48 | O=C(c1ccccc1)c1coc2ccc(O)c(Cl)c12 | inactive | 

Row | Structure (SMILES) | Potency | activity change, negative = inhibition
49 | Cc1ccc2nc(-c3ccc(O)c(O)c3)cn2c1 | inconclusive: 15.8 µM [inhibitor, single point] | 
50 | CC1CCCN(S(=O)(=O)c2ccc(N(C(=O)c3cnccn3)C(C(=O)NC3CCCCC3)c3cccs3)cc2)C1 (configuration not stated) | inconclusive: 22.4 µM [inhibitor, partial curve, poor fit] | 
51 | COc1ccc(NC(=O)N2CCCC(c3nc(-c4ccc(OC)cc4)no3)C2)cc1 (configuration not stated) | inconclusive: 20 µM [inhibitor, single point] | 
52 | COc1cccc(C(=O)Nc2c(C(=O)c3ccc(F)cc3)oc3ccccc23)c1 | inactive | 
53 | CN(C)CCNC(=O)NC(=O)c1ccc(Cl)cc1 | inconclusive: 1.78 µM [inhibitor, partial curve, poor fit] | 
54 | CC1CCN(c2cc(N)c(Cl)cc2[N+](=O)[O-])CC1 | inconclusive: 35.5 µM [activator, single point] | 
55 | CCN(CC(=O)Nc1c(C(=O)OC)[nH]c2ccc(Cl)cc12)c1ccc2c(c1)OCO2 | active: 12.6 µM | 
56 | COC(=O)C12CCC(C)(c3nc4ccccc4nc31)C2(C)C (configuration not stated) | inactive | 
57 | COc1ccc(C(=O)Nc2ncc3c(n2)CC(C)CC3=O)cc1 (configuration not stated) | inactive | 
58 | CCCOC(=O)C1=C(C)NC2=C(C(=O)CCC2)C1c1cccc(OC)c1OC (configuration not stated) | inactive | 
59 | COc1ccc(C(=O)C2CCCN(C(=O)c3noc4c3CCCC4)C2)c(C)c1 (configuration not stated) | inconclusive: 35.5 µM [inhibitor, single point] | 
60 | Cc1cc(C)n2nc(SCC(=O)Nc3ccc(F)cc3[N+](=O)[O-])nc2n1 | inactive | 
61 | CS(=O)(=O)N1CCN(c2nc(-c3ccc(F)cc3)cs2)CC1 | inactive | 
62 | COc1cccc(NC(=O)CSc2nnc(-c3cccs3)o2)c1 | inactive | 
63 | C=CCc1c(C)c(C#N)c2nc3ccccc3n2c1N1CCCCC1 | inactive | 
64 | CC1=C(c2ccc(C)c(C)c2)S(=O)(=O)N=C1N1CCC(C(=O)Nc2cccc(F)c2)CC1 | inactive | 
65 | Oc1ccc(/C=C/c2ccnc3ccccc23)cc1 | inconclusive: 20 µM [inhibitor, single point] | 
66 | O=C(COC(=O)/C=C/c1ccccc1[N+](=O)[O-])NCC1CCCO1 (configuration not stated) | inactive | 
67 | O=C1Nc2ccc(Cl)cc2C12Nc1ccccc1-c1nnc(SCc3ccccc3F)nc1O2 (configuration not stated) | inconclusive: 16.4 µM [inhibitor, single point] | 
68 | O=c1[nH]sc2ccccc12 | inactive | 
69 | CC(=O)N1CCc2cc(S(=O)(=O)CCC(=O)NCc3ccc4c(c3)OCO4)ccc21 | inconclusive: 35.5 µM [inhibitor, partial curve, poor fit] | 
70 | CCOC(=O)c1cnc2ccc(C)cc2c1NCCc1ccc(OC)c(OC)c1 | inactive | 
71 | Cc1ccc(NC(=O)C(Cc2ccccc2)NC(=O)OCc2ccccc2)cc1C (configuration not stated) | inconclusive: 7.94 µM [inhibitor, partial curve] | 
72 | COc1cc(OC)cc(-c2nc3ccccc3s2)c1 | inconclusive: 3.26 µM [activator, partial curve, poor fit] | 
